Measured values reported in US11964109B2, “Systems and methods for driving neural activity to control brain signaling and gene expression” (GEORGIA TECH RESEARCH CORPORATION, priority 2018, dated 2024).
At least one structure is not confirmed: it was looked up by name or label, or the drawing left a doubt.

System: Erk phosphorylation (MAPK pathway, upstream Mek)
Assay: Erk phosphorylation in visual cortex after 40 Hz flicker (Luminex multiplexed immunoassay)
Format: in vivo
Conditions: mice, IP injection, 100 mg/kg SL327, 40 Hz visual flicker

N#C/C(=C(/N)Sc1ccc(N)cc1)c1ccccc1C(F)(F)F [SL327]
phospho-Erk (downstream Erk phosphorylation): significantly suppressed phospho-Erk
